According to PMC12040169 (PLOS Biology, 2025):
This is one part of the list.

The compounds below were run on T1, CTL2-GFP (C. trachomatis L2/434/Bu, GFP-expressing). Settings: bulk GFP, single well; 28.5 h, 10 µM; inhibitor.
T1 construct: L2/434/Bu, GFP-expressing
Parameters: species or system HeLa; Intracellular C. trachomatis growth in HeLa cells, bulk GFP fluorescence relative to DMSO

| SMILES | % of control remaining |
| --- | --- |
| c1cnn(CC2CCCN2c2ncnc3sccc23)c1 (stereo not shown) [CBK304968] | 113.064% |
| O=c1c2ccccc2c(-c2ccc(Cl)cc2)nn1-c1cc(N2CCNCC2)ccc1[N+](=O)[O-] [CBK265763] | 106.704% |
| Cc1cc(NCC2(CO)CCOCC2)nc(N2CCCC2)n1 [CBK307005] | 141.063% |
| CCCCNc1nnc(-c2cc(C)nn2C)s1 [CBK288019] | 102.855% |
| COc1cc(-c2nc(-c3ccc(Cl)cc3)c(-c3ccccc3)[nH]2)c([N+](=O)[O-])cc1OC [CBK264503] | 108.169% |
| CCc1nc2ccccc2c(NC(=O)CN2CCCCCC2)c1C [CBK261580G] | 110.556% |
| C[C@H](C(=O)N1CCCC1)C1CC[C@@]2(C)Cc3sc(NC(=O)C4CC4)nc3[C@@H](C)[C@@H]2[C@H]1O (stereo partly shown) [CBK289432] | 116.346% |
| OC(CNc1nccnc1-c1ccsc1)COc1ccccc1 (stereo not shown) [CBK037057] | 119.595% |
| CN(c1ccc(C(O)(C(F)(F)F)C(F)(F)F)cc1)S(=O)(=O)c1cccs1 [CBK067061] | 104.135% |
| CC(=O)NC[C@H]1CN(c2ccc(C#N)c(C)c2)C(=O)O1 [CBK010393] | 39.5786% |
| O=C(NCCc1ccc(F)cc1)C1CN(C(=O)c2ccc3nsnc3c2)C1 [CBK285690] | 134.061% |
| Cc1ccc(CNC(=O)C2CCN(S(=O)(=O)N3CCOCC3)CC2)cc1 [CBK294467] | 106.989% |
| O=C(CCC(=O)c1ccccc1)Nc1cc2ccccc2c(N2CCNCC2)n1 [CBK028418T] | 102.864% |
| Cn1c(=O)n(C)c2cc(CNc3nn[nH]n3)ccc21 [CBK270243] | 178.985% |
| O=C(Nc1cccc2nsnc12)c1ccc(-c2ccc(Br)cc2)o1 [CBK263752] | 86.1373% |
| C=CCOc1ccc(-c2nc3s/c(=C4\C(=O)N(Cc5ccccc5F)c5ccccc54)c(=O)n3n2)cc1 [CBK266615] | 121.466% |
| CCOc1ccc2c(c1)cc(C(=O)N(C)CC(F)(F)F)n2C [CBK281509] | 133.465% |
| N=C(N)NC(=N)Nc1ccc2c(c1)OCCO2 [CBK021572C] | 110.418% |
| Nc1ncc(-c2ccccc2O)nc1-c1ccc(O)cc1 [CBK115548] | 205.887% |
| CN(C)c1cccc(OCCn2ccnc(N3CCNCC3)c2=O)c1 [CBK013866F] | 114.322% |
| Cc1cc(C)c2c(c1)cc(C)c1nn(CC(=O)N3CCCC3)c(=O)n12 [CBK283876] | 132.373% |
| COc1ccccc1OCC(=O)N1CCN(C(=O)c2ccco2)CC1 [CBK144466] | 127.596% |
| CN1CCN(Cc2c(C(C)(C)C)[nH]c3ncccc23)CC1 [CBK285334] | 113.473% |
| O=C(O)c1ccc(CN2C(=O)c3ccc(C(=O)c4ccc(C(=O)O)cc4)cc3C2=O)cc1 [CBK262831] | 125.969% |
| O=C(CCCn1ccnc1)NC(Cc1ccsc1)c1cccnc1 (stereo not shown) [CBK285158] | 121.123% |
| COc1ccccc1-c1cc2nc(C)cc(Nc3ccccc3)n2n1 [CBK287806] | 108.513% |
| CCOC(=O)c1nnsc1Sc1ccc(C)cc1 [CBK018867] | 137.228% |

Reprinted at random: 2 entries already listed.

| SMILES | % of control remaining |
| --- | --- |
| OC(CNc1nccnc1-c1ccsc1)COc1ccccc1 (stereo not shown) [CBK037057] | 119.595% |
| CN(c1ccc(C(O)(C(F)(F)F)C(F)(F)F)cc1)S(=O)(=O)c1cccs1 [CBK067061] | 104.135% |

(cont.)

| SMILES | % of control remaining |
| --- | --- |
| O=C(NCCc1ccccn1)N1CCCN(Cc2cccs2)CC1 [CBK305283] | 126.978% |
| CCc1cc(NCCc2ccc(=O)[nH]c2)nc(-c2ccc(Br)cc2)n1 [CBK144610C] | 99.9626% |
| CC(C)Nc1nc(C#N)nc(NC(C)C)n1 [CBK027421] | 118.225% |
| COCc1nnc(Sc2cc(N3CCCC3)ncn2)s1 [CBK093746] | 103.945% |
| Cc1cc2cc(NC(=O)CCc3c(C)n[nH]c3C)ccc2o1 [CBK283077] | 127.349% |
| COc1cc(CNC(=O)N(CCc2ccccc2)Cc2ccccc2)cc(OC)c1OC [CBK155329] | 58.6352% |
| Cc1cc(NC(=O)COc2ccc(Cl)cc2)nc2c1c(=O)oc1ccccc12 [CBK291230] | 160.837% |
| COc1cc(C(=O)Nc2ccccc2C(=O)N2CCN(C)CC2)cc(OC)c1OC [CBK269803] | 112.816% |
| Cc1cccc(C(=O)Nc2nnc(C3=COCCO3)o2)c1 [CBK287406] | 132.716% |
| Cc1nc(N2CCN(Cc3ccc4c(c3)OCO4)CC2)c2c(C)c(C)sc2n1 [CBK266739] | 105.291% |
| O=C(CSc1cccc2ccccc12)Nc1ccc([N+](=O)[O-])cc1O [CBK268696] | 84.7644% |
| Cc1ccc(-c2cc(C(=O)NCC3(C)COC3)no2)cc1 [CBK281744] | 161.143% |
| C[C@@H]1CN(C(=O)c2n[nH]c3ccccc23)C[C@H](C)O1 [CBK200232] | 141.316% |
| Cc1ccc(Cc2nc(-c3cccnc3)no2)cc1 [CBK288141] | 119.513% |
| Cc1nn(-c2ccccc2)c2[nH]c(=O)c(CNC3CCC3)cc12 [CBK282897] | 99.5155% |
| CC(=O)NCC(=O)N(c1ccccc1)C1(C(=O)NC(c2ccccc2)c2ccccc2)CCCC1 [CBK100884] | 110.9% |
| O=S(=O)(NCc1nc2ccccc2[nH]1)c1ccc(Cl)c(Cl)c1 [CBK261137] | 108.689% |
| CC(CCc1ccc(F)cc1)NC(=O)c1cc2c([nH]c1=O)CCC2 (stereo not shown) [CBK281512] | 154.091% |
| COc1nccnc1OC1CCN(CC(N)=O)CC1 [CBK084248] | 113.322% |
| OCC1CCCN1c1cc(Cl)nc2ccnn12 (stereo not shown) [CBK037011] | 102.731% |
| Cn1nc(-c2ccc(S(=O)(=O)Nc3ccc4cn[nH]c4c3)s2)cc1C(F)(F)F [CBK067156] | 127.061% |
| COc1cc(CNCc2ccco2)ccc1OCC(N)=O [CBK270204C] | 116.515% |
| Cc1nc(S(=O)(=O)Nc2ccc3[nH]ccc3c2)cn1C [CBK156800] | 123.413% |
| CCCC/C=C/c1cn2ccnc2c(N2CCN(c3ccccn3)CC2)n1 [CBK066224] | 184.365% |
| O=C(O)C1CCCN(C(=O)Cn2ccc3ccc(OCc4ccccc4)cc32)C1 (stereo not shown) [CBK286814] | 157.807% |
| COc1ccc(C(C)C)cc1-c1cnc(N)c(Nc2ccc3[nH]ccc3c2)n1 [CBK063827] | 209.128% |
| Cc1cc(C)c2oc(-c3ccc(Cl)c(NC(=O)Cc4ccc(Cl)cc4)c3)nc2c1 [CBK264695] | 128.447% |

| SMILES | % of control remaining |
| --- | --- |
| CC(=O)O/C(N)=N/c1nonc1N [CBK021885] | 117.403% |
| COc1ccc(CN[C@H]2[C@H](O)[C@@H](N3CCCC3)[C@@H]3OC[C@H]2O3)cc1 [CBK288827] | 180.901% |
| COCCOCN1C(=O)CC2(C1=O)C(=O)N(Cc1ccc(OC(F)(F)F)cc1)c1ccccc12 (stereo not shown) [CBK075942] | 181.369% |
| Cc1c(NCc2ccc3c(c2)n(C)c(=O)n3C)cccc1C(=O)O [CBK287237] | 107.77% |
| Fc1ccc(Oc2nccnc2N2CCN(Cc3cccnc3)CC2)cc1 [CBK083011] | 99.6696% |
| c1ccc(CCN2CCC(c3nc(-c4ccccc4)no3)CC2)cc1 [CBK051454] | 108.298% |
| CN(c1cc(F)ccc1[N+](=O)[O-])S(C)(=O)=O [CBK001365] | 94.1557% |
| CN(CC(=O)O)S(=O)(=O)c1cccc2cccc(Cl)c12 [CBK268433] | 112.783% |
| CC(=O)Nc1ccc(NC(=O)CSCC(=O)O)cc1 [CBK226269] | 158.607% |
| N#Cc1ccc(CNC(=O)N2CCc3ccccc3C2)cc1 [CBK155287] | 158.853% |
| COc1ccc(C(=O)C2=C(O)C(=O)N(CCN(C)C)C2c2ccncc2)c(C)c1 (stereo not shown) [CBK264867] | 134.342% |
| Cc1cc(C)n2ncc(C(=O)NCC(c3cccs3)N3CCCC3)c2n1 (stereo not shown) [CBK305675] | 95.2446% |
| CC(C)CNC(=O)c1cc([C@H]2CC[C@H](CNC(=O)c3cnn(C)c3)CC2)nc2ccccc12 [CBK285867] | 101.225% |
| CCC(NC(=O)C(c1cccs1)c1cccs1)c1ccc(F)cc1 (stereo not shown) [CBK286339] | 82.1142% |
| Cc1nccn1CCNC(=O)CC1C(=O)N(C)c2ccccc21 (stereo not shown) [CBK281977] | 131.422% |
| COc1ccc(CCNC(=O)N2CCCCC2CO)cc1 (stereo not shown) [CBK156188] | 131.141% |
| CC(C)(C)OC(=O)N1CCN(C(=O)N[C@@H](Cc2ccccc2)C(=O)O)CC1 [CBK286785] | 94.8392% |
| O=C(CC1NC(=O)NC1=O)Nc1ccc(C(=O)O)cc1 (stereo not shown) [CBK267355] | 155.896% |
| CCN(CC)CC1CCCN(C(=O)Cn2ccc3ccc(F)cc32)C1 (stereo not shown) [CBK282146] | 140.118% |
| COc1cccc(-c2ccc(NC(=O)c3ccc(Cn4cnnn4)cc3)cc2)c1 [CBK285850] | 130.713% |
| COc1ccc(-c2ccc(C(=O)N(C)C)c(N(C)C(C)=O)n2)cc1 [CBK076500] | 109.256% |
| O=C(NCCc1cc2ccccc2[nH]1)Nc1cccc2ccccc12 [CBK269246] | 79.2422% |
| CC(C)OCC(=O)NC1CCCc2nc(N3CCC(CO)CC3)ncc21 (stereo not shown) [CBK307520] | 149.825% |
| O=C(O)CN(c1ccc(F)cc1)S(=O)(=O)c1ccc2c(c1)OCCO2 [CBK287096] | 110.678% |
| Oc1ccccc1-c1ccnc(SC(F)F)n1 [CBK021971] | 149.062% |

A run of entries from the list above:

| SMILES | % of control remaining |
| --- | --- |
| Cc1cc(C)n2ncc(C(=O)NCC(c3cccs3)N3CCCC3)c2n1 (stereo not shown) [CBK305675] | 95.2446% |
| CC(C)CNC(=O)c1cc([C@H]2CC[C@H](CNC(=O)c3cnn(C)c3)CC2)nc2ccccc12 [CBK285867] | 101.225% |
| CCC(NC(=O)C(c1cccs1)c1cccs1)c1ccc(F)cc1 (stereo not shown) [CBK286339] | 82.1142% |
